Values quoted from earlier work in patent US20260248805A1, “DIAMINOPHENOTHIAZINE FOR THE TREATMENT OF MICROVASCULAR BRAIN DISEASE” (priority 2023, published 2026).
At least one structure is not confirmed: it was looked up by name or label, or the drawing left a doubt.

Tested on: mild to moderate AD
Settings: despite significant lowering of cholesterol levels; cited from earlier work

Structure (SMILES): CCC(C)(C)C(=O)O[C@H]1C[C@@H](C)C=C2C=C[C@H](C)[C@H](CC[C@@H]3C[C@@H](O)CC(=O)O3)[C@H]21 [simvastatin]
- benefit in mild to moderate AD: no benefit
